{"source": "patent US20090054346A1", "about": "(Rohto Pharmaceutical Co., Ltd., priority 2006, published 2009)", "experiment": "general procedure: Fmoc solid-phase peptide synthesis", "settings": "whole synthesis, 220 nm", "note": "HELM strings list residues between dots; [ac] is acetyl, [am] amide, other brackets name non-standard units."}
{"substance": "PEPTIDE1{L.E.H.A}$$$$V2.0", "values": [{"measurement": "final HPLC purity", "result": 99, "unit": "%"}]}
